These are yes or no findings as the source states them, for the method shown. Sequences can lack the tags named with a protein.
Molecular target: T1, S. cerevisiae GST-Tel2p (S. cerevisiae) (UniProt P53038)
T1 sequence: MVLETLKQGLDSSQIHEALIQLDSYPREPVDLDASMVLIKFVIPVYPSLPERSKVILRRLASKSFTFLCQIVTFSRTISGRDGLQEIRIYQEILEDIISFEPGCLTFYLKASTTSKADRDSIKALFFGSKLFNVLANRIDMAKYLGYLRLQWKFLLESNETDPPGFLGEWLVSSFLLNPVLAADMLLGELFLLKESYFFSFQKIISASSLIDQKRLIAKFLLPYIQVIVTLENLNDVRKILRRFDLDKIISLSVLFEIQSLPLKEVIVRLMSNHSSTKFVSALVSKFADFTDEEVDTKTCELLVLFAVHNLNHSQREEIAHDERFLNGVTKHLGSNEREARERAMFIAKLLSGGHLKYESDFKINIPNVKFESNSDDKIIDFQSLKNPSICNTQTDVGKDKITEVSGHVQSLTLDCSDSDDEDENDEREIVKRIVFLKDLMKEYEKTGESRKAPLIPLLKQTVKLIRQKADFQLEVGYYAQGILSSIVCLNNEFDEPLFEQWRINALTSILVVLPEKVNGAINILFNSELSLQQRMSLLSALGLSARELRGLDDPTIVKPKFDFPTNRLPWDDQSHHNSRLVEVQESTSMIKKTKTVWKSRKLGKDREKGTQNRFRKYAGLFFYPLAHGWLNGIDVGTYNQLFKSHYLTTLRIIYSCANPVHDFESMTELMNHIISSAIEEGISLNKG
Assay: pull-down; GST beads hold yeast Tti1p-GST-Tti2p or GST-Tel2p; purified KmTOR-KmLst8; Coomassie-stained SDS-PAGE; both purified

binding: no binding
Substance: Kluyveromyces marxianus TOR1-Lst8 complex
